Patent publication US12178838B2, “Synthetic neuromodulatory peptides” (Lactocore, Inc., priority 2019, dated 2024)
Not every detail of the peptide structures is certain; ends, links or a residue may be inferred. Residues, ends and D or L forms follow the SMILES beside them.

Key:
[1] = tested on: corticosterone in rat plasma; assay: Learned helplessness model: plasma corticosterone and dexamethasone test; assay type: in vivo, rats
Description: On the first day of the test (DXMT1) at 10:00 AM, animals were injected intraperitoneally with saline, then at 04:00 PM on the same day peripheral blood samples were taken to determine the basal level of the hormone, which caused stress, and 30 minutes after taking the rat from the cage and receiving initial sample, re-taken blood to measure hormone stress level.
To study the sensitivity of the HPA system to feedback signals, rats were injected with dexamethasone (10 μg/kg, intraperitoneally) the next day (DXMT2) at 10 am. The procedure for taking blood from the tail vein was repeated after 6 and 6.5 hours. The corticosterone content was determined by enzyme-linked immunosorbent assay with reagent kits “Corticosterone-ELISA” (“Hema”, RF) in two parallel samples.
“LH”—a group of animals subjected to stress, in which a depressive state of “learned helplessness” was developed. Pharmacotherapy was not performed in the LH group; the development of experimental depression was studied. […] “LH+Map.”—the comparison drug group. Maprotiline was injected intraperitoneally at a dosage of 4.5 mg/kg ten days daily to develop experimental depression.

zebrafish (Danio rerio) = assay: Light/dark box test in zebrafish; assay type: in vivo; settings: ip, FQSE 10 mg/kg
Description: The tested substances were injected into the zebrafish intraperitoneally (ip) using an insulin syringe (0.5 ml, 30 g) 10 minutes before the test. The saline solution (0.9% NaCl) was used as a solvent. Anesthesia and immobilization of the animals were achieved by placing them in water at a temperature of 10° C. Control group fish received intraperitoneal injections of an equivalent volume of solvent, also after going through a pre-cooling procedure.
A base, back, and side walls of the aquarium were made of matte black plastic; the front panel (shorter wall) was made of transparent Plexiglas. The setup for the Light/Dark preference test consisted of three main parts: a launch compartment, a light compartment made of white plastic, and a dark compartment made of black plastic. The bright lighting in these tests was provided by a lamp on a stand (LED lamp PL, 11 W, light flux≈600 Lm, about 500 Lx directly above the water surface), which was attached to the upper part of the aquarium.
The light/dark box (LDB) test was performed as described in Maximino et al., 2011. The zebrafish was placed in a light compartment of an LDB using a net, the camera was switched on simultaneously, and the behavior of the zebrafish was recorded for 5 minutes. The video was processed using RealTimer (OpenScience). During the processing of records, the residence time and the number of visits to the light and dark compartments of the test setup were recorded, as well as the latent period of visiting both compartments.

[2] = tested on: Wistar rats after chronic unpredictable mild stress; assay: CUMS model: Female Urine Sniffing Test; assay type: in vivo
Sprague Dawley rats = assay: Elevated Plus Maze in rats, intranasal FQSE; assay type: in vivo
Description: The five doses of FQSE (SEQ ID NO:10) (0.01, 0.1, 0.5, 1 and 3 mg/kg, CS, Menlo Park, CA) were prepared fresh for each test day in sterile saline and administered intranasally (i.n.) 30 minutes prior to testing. Fifteen rats per group per peptide dose were tested with the exception that there were twenty rats in the vehicle (0) group. Each dose was administered in a randomized order across rats. Prior to dosing, the rats were lightly anesthetized (till loss of righting reflex) with isoflurane (2.5%, 0.5 L/min oxygen), placed in the recumbent position, then a thin plastic pipette (Fischer Scientific) inserted into the nares and peptide administered at a volume of 15-20 uL per nares. Individuals performing the behavioral tests were blind to drug treatment.
Rats were first allowed to acclimate to the testing room for 30 minutes while in their home cage. During testing, a rat was placed on the maze which consists of two open arms (45-cm long×10-cm wide), two closed arms (45-cm long×10-cm wide×30-cm high), and a middle compartment (4-cm long×4-cm wide) forming the shape of a plus located 50-cm above the floor, for 5-min. The test session was digitally recorded for later analyses (Ethovision, XT12). All testing was conducted under red lighting. An experimenter observed the rat during testing through a specialized observation window built into the door of the behavioral testing room. […]

[3] = tested on: Wistar rats after chronic unpredictable mild stress; assay: CUMS model: Novelty Suppressed Feeding Test; assay type: in vivo; settings: for latency to start eating: 11 days
Description: During stress, the animals were placed in individual cells and exposed to stressful conditions each day for 26 days. Two stressors were used daily, applied in the following order: • Day 1. 10 am-6 pm, rats were placed in a cold room for an hour. From 6 PM to 10 am the lights were turned on and off every 2 hours. • Day 2. 10 am-6 pm, cage tilted to 45°. From 6 PM to 10 am water deprivation. • Day 3. 10 am-6 pm, stroboscopic light. From 6 PM to 10 am the light was left on overnight. • Day 4. 10 am-6 pm, wet bedding. From 6 PM to 10 am the animals were put in a small mouse cage. • Day 5. 10 am-6 pm, no bedding. From 6 PM to 10 am the lights were turned on and off every 2 hours. • Day 6. 10 am-6 pm, a new rat was placed in the cage (6-month-old). From 6 PM to 10 am the light was left on overnight. • Day 7. 10 am-6 pm, white noise. From 6 PM to 10 am a stroboscopic light was turned on at night. • Day 8-26. Repetition of previously used stressors in the specified sequence.
Experimental substances were administered daily starting from the 58-59 day of the experiment. The administration took place 30 minutes before the start of behavioral testing. On days when there were no tests, the substances were administered in the morning.
To assess anxiety and food motivation, a test for eating behavior in a new environment was used. In this test, a laboratory animal that had previously been subjected to food deprivation for 24 hours was placed in a square arena (50×50×40 cm) for 5 minutes (Jiao et al. (2019). Influence of Xiaoyaosan on depressive-like behaviors in chronic stress-depressed rats through regulating tryptophan metabolism in hippocampus. Neuropsych. Dis. Treat. 15, 21). A treat (a food pellet) was placed in the brightly lit center of the arena. The time to start eating and the duration of consumption were recorded. Due to fear of open lit spaces by rodents, this test is used to assess the level of anxiety. […] Chronic administration of antidepressants also leads to a decrease in the latency to start eating in this test.

Structure (SMILES): NC(=O)CC[C@H](NC(=O)[C@@H](N)Cc1ccccc1)C(=O)N[C@@H](CO)C(=O)N[C@@H](CCC(=O)O)C(=O)O [FQSE] (H-FQSE-OH)
- suppression of the stress-induced increase in CS in blood after DXM ([1]; FQSE 2.5 mg/kg): but not 2.5 mg/kg
- magnitude of suppression—Δ between the Saline and DXM in the stress level of corticosterone ([1]; LH + FQSE 0.5, LH + Map.): 298.8 nmol/L
- magnitude of suppression—Δ between the Saline and DXM in the stress level of corticosterone ([1]; LH + FQSE 2.5): 146.2 nmol/L
- suppression of the stress-induced increase in CS in blood after DXM ([1]; Map 4.5 mg/kg, FQSE 0.5 mg/kg): significant suppression
- basal level of corticosterone (CS) in plasma ([1]; Map, FQSE in both doses (0.5, 2.5 mg/kg), vs LH group): significantly lower level of CS
- time spent in the dark compartment (zebrafish (Danio rerio); WDQV 10 mg/kg): decrease
- decrease in the time spent in the dark compartment relatively to the control group (zebrafish (Danio rerio); diazepam 5 mg/kg): approximately 40%
- relative increase in the time spent in the light compartment compared with the control group (zebrafish (Danio rerio); diazepam 5 mg/kg): approximately 140%
- time spent in the light compartment (zebrafish (Danio rerio); diazepam 5 mg/kg, WDQV 10 mg/kg): statistically significant increase
- result obtained in FUST (8 administrations) ([2]; FQSE 0.05 mg/kg): antidepressant-like
- result obtained in FUST (8 administrations) ([2]; FQSE 0.5 mg/kg, Diazepam): antidepressant-like
- percent time on the open arm (Sprague Dawley rats; FQSE 0.01 mg/kg i.n.): 10.6±1.6%
- percent time on the open arm (Sprague Dawley rats; FQSE 0.5 mg/kg i.n., diazepam 2 mg/kg IP): 11.3±2.05%
- result obtained in NSFT (11 administrations) ([3]; CUMS, FQSE 0.05 mg/kg): anxiolytic effect
- latency to start eating ([3]; FQSE 0.05 mg/kg i.n., vs control and CUMS+veh): significant increase in time
- latency to start eating ([3]; FQSE 0.5 mg/kg i.n., diazepam 0.5 mg/kg i.p.): did not differ
